US20130045962A1, “PEPTIDE DEFORMYLASE INHIBITORS” (priority 2007, published 2013)
Some entries share one result that the patent states for a list of compounds. At least one structure is not confirmed: it was looked up by name or label, or the drawing left a doubt.

Experiments:
[1] = target: T1, Streptococcus pneumoniae PDF (Streptococcus pneumoniae serotype 4, UniProt Q9F2F0); experiment: PDF IC50 assay (FDH-coupled), S. pneumoniae PDF; format: biochemical; conditions: read-out: IC50, inhibition of S. pneumoniae PDF activity
T1 sequence (Q9F2F0 1-203): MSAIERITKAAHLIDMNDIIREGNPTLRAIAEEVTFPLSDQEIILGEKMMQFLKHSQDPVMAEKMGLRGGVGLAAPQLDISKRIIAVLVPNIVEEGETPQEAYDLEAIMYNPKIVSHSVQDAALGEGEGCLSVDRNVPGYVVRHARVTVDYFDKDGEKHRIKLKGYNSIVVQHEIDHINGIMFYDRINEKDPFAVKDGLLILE

[2] = target: T2, Staphylococcus aureus PDF (SaPDF) (Staphylococcus aureus, UniProt P68826); experiment: PDF IC50 assay (FDH-coupled), S. aureus PDF; format: biochemical; conditions: read-out: IC50, inhibition of S. aureus PDF activity
T2 sequence (P68826 1-183): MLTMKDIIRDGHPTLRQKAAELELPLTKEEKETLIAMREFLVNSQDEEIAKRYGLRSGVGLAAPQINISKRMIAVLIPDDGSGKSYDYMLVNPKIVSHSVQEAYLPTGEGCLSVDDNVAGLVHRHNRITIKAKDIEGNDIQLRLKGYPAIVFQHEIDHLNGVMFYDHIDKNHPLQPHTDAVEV

SMILES | IC50 [1] [nM] | IC50 [2] [nM]
C[C@H]1CN(c2nc(Cl)nc(NNC(=O)[C@H](CC3CCCC3)CN(O)C=O)c2F)C[C@@H]1N(C)C (relative stereo) [Example 138, [(2R)-3-(2-{2-Chloro-6-[(trans)-3-(dimethylamino)-4-methyl-1-pyrrolidinyl]-5-fluoro-4-pyrimidinyl}hydrazino)-2-(cyclopentylmethyl)-3-oxopropyl]hydroxyformamide] | ≤ 100 | ≤ 100
O=CN(O)C[C@@H](CC1CCCC1)C(=O)NNc1nc(Cl)nc(N2CCC[C@H]2c2cccnc2)c1F [Example 268, [(2R)-3-(2-{2-Chloro-5-fluoro-6-[(2S)-2-phenyl-1-pyrrolidinyl]-4-pyrimidinyl}hydrazino)-2-(cyclopentylmethyl)-3-oxopropyl]hydroxyformamide] | ≤ 100 | ≤ 100
Cc1nc(NNC(=O)[C@H](CC2CCCC2)CN(O)C=O)c(F)c(N2C[C@H](CO)[C@@H](C)C2)n1 [Example 102, [(2R)-3-(2-{2-Chloro-5-fluoro-6-[(trans)-3-(hydroxymethyl)-4-methyl-1-pyrrolidinyl]-4-pyrimidinyl}hydrazino)-2-(cyclopentylmethyl)-3-oxopropyl]hydroxyformamide] | ≤ 100 | ≤ 100
CCc1nc(NNC(=O)[C@H](CC2CCCC2)CN(O)C=O)c(F)c(N[C@H](C)C(=O)N2CCCC2)n1 [Example 70, N-{(2R)-2-(Cyclopentylmethyl)-3-[2-(2-ethyl-5-fluoro-6-{[(1R)-1-methyl-2-oxo-2-(1-pyrrolidinyl)ethyl]amino}-4-pyrimidinyl)hydrazino]-3-oxopropyl}-N-hydroxyformamide] | ≤ 100 | ≤ 100
CN(C)C[C@@H]1COCCN1c1nc(Cl)nc(NNC(=O)[C@H](CC2CCCC2)CN(O)C=O)c1F [Example 156, {(2R)-2-(Cyclopentylmethyl)-3-[2-(6-{(3R)-3-[(dimethylamino)methyl]-4-morpholinyl}-5-fluoro-2-methyl-4-pyrimidinyl)hydrazino]-3-oxopropyl}hydroxyformamide] | ≤ 100 | ≤ 100
